Some results were stated once for a whole list of compounds, not compound by compound. Some ranges recur; such a range may be that of the whole group of compounds.
Test: Bioavailability test through biological membrane (U-tube, OD in receiving tube)
Conditions: with glycyrrhizin; mammalian gut membrane and artificial membrane

CN(C)[C@@H]1C(O)=C(C(N)=O)C(=O)[C@@]2(O)C(O)=C3C(=O)c4c(O)cccc4[C@@](C)(O)[C@H]3C[C@@H]12 [Tetracycline]
Enhancement in transport by glycyrrhizin across the gut as well as artificial membrane: 2 to 6 folds
